These are yes or no findings as the source states them, for the method shown. Binding seen in cells or lysates may run through a third protein. These calls come from enrichment with a bait or labelling near it, and not all partners need be listed. Sequences can lack the tags named with a protein.

In this test the target is T1, MecA with C-terminal tandem affinity purification (TAP) tag (3x HA + FLAG) (S. mutans) (UniProt Q8DW33).
T1 sequence: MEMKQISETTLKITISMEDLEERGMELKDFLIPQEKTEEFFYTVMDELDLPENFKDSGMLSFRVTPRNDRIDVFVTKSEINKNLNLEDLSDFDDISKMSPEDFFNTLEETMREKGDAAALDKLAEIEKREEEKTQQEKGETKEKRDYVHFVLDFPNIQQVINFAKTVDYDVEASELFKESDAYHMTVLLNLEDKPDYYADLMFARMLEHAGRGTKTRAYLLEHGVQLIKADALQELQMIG
The test is described as follows: affinity purification with mass spectrometry; MecA with C-terminal TAP tag (3x HA + FLAG) as bait; S. mutans grown to mid-logarithmic phase, formaldehyde crosslinked; anti-FLAG affinity resin, then anti-HA affinity resin; LC-MS/MS; three experiments; >=2-fold enrichment of spectral counts over the untagged wild type.

B1: Beta-ketoacyl-ACP synthase II, FabF (protein, UniProt Q8DSN6 1-410)
chain: MTLKRVVVTGYGVTSPIGHTPEDFWNSLHDGKIGIKPITKFDASEIPVFNAGEIQDFPFDKYFVKKDKNRMDTYSLYAIYAAMEAIENAALDMAQEIRDRVGVIVSSGIGGLQELEDQIIRMHERGMKRIKPMFIPKALSNMGAGNIALKIGAQGVCKSITTACASANDAIGEAFREIKYGFHDVILAGGSEASITKIGIGGFNALTALSTTEDPARSAIPFDKDRNGFVMGEGAAVLILESLEHAQKRGARILAEVVGYGSNCDAYHMTTPTPDGSGAAKAIKLAINEAGISPEEVNYVNAHGTSTQANEKGESKAIVAVLGKDVPVSSTKSFTGHLLGAAGGVEAIATIEAIRNHFVPMTAGTKELSEDIEANVVYGQGQEAVIKYAISNTFGFGGHNAVLAFKRWED
As for B1, the binding result is “binds”.

B2: 3-deoxy-7-phosphoheptulonate synthase, AroG (protein, UniProt Q8DSF2 1-344)
chain: MGIHQKSKTIDLFTVKQGTQLKGQDLAKKEARDRELVSIIKGEDNRLLLIIGPCSSDNEEAVLEYAKRLAKLQEEVKDRIFMVMRVYTAKPRTNGDGYKGLIHQPNTSKLPDLINGIHAVRNLHYRVITETGLTTADEMLYPSNLVLVDDLVSYHAVGARSVEDQEHRFVASGIDVPTGMKNPTSGNLKVMLNALHAAQNSQNFIYNGAEVETDGNSLAHVILRGGSNEHGDYEPNYYYDVLLKLIQQYENMNLINPFIVVDTNHDNSGKNYLEQVRIVRQTLINRDWNDKINKYVRGFMIESYLEDGRQDKPEVFGKSITDPCLGWENTQQLIYEIYHTLKAK
In the case of B2, the binding entry is reported as “binds”.

B3: Acetyl-CoA carboxylase biotin carboxylase subunit, AccC (protein, UniProt Q8DSN9 1-456)
chain: MFKKILIANRGEIAVRIIRAARELGIVTVAVYSEADKESLHTLLADEAVCVGPAKSTDSYLNMNAILSAAIVTGAEAIHPGFGFLSENSKFATMCEEMRIKFIGPSASVMDKMGDKINARSEMLKAKVPVIPGSDGEVFTAQEALEIAQDIGYPVMLKASAGGGGKGIRKVDKKEDLTAAFESASQEALSAFGNGAMYLEKVIYPARHIEVQILGDSFGNIIHLGERDCSLQRNNQKVLEESPSIAIGKTLRGKMGDAAVRAAKAVAYENAGTIEFLLDEASGQFYFMEMNTRVQVEHPVTEFVTGIDIVKEQIKIAAGQELTYQQKDIVISGHAIECRINAENPKFNFAPSPGKVEDLFLPSGGVGLRVDSAMYNNYTIPPYYDSMIAKIIVHGENRFDALMKMQRALYEFEVTGVVTNAEFQLDLISNPNVIAGDYDTSFLMETFLPAYANDKE
As for B3, the binding entry was “binds”.

B4: Chromosome segregation protein, SMC (protein, UniProt Q7ZAL0 1-1178)
chain: MFLKEIEMQGFKSFADKTKVEFDRGVTAVVGPNGSGKSNITESLRWALGESSAKSLRGGKMPDVIFAGTENRKPLNYAQVTVILDNSDAFIKDAQEEIRIERHIYRNGDSDYLIDGKKVRLRDIHDLFMDTGLGRDSFSIISQGRVEEIFNSKPEERRSIFEEAAGVLKYKTRKKETQSKLTQTQDNLDRLDDIIYELETQIKPLERQAKTAKEFLVLETERKEKQLDLLVYQILHHKEALVKNQAELEKVKQNLAAYYQERDLLETKNQTLKEKRHQLSRQMDQKQADLLEMTRLISDYERQIERIHLEVSQKTEKKQSTQKSLEQLSEQKASLKTELAQKEVDLEQLEEDLKQKNQEIKNVETELSRFATDPDHIIESLREDFVRLMQKEADTSNQLAVLKAEMDSRKQESESKTAEIKQVQADLEKAKDREQRESANFETAKTKVQELLKDYQKTAQLVQNLEAAYAEQQEAMFQLLDDVKDKKARQSSLKSILKSHSNFYAGVRSVLQQADKIKGIVGAVSEHLTFDKKYQTALEIALGASSQNIIVEDEAAAKRSIDFLKKNHQGRATFLPLTTIKPRRLSESNQSLLTSSQGFLGLARDLVSFEPRLQTIFGNLLGVTAIFDTVGHANQAARQLRYQVRLVTLDGTEIRPGGSFSGGTSRQNNTTFIKPELDHLTQELALLEEKQVEQERIVEKTKQDLEVKKADLLELREKGNQARLAEQKAEMEYQQSESHLQELVLLYTQLKQTNQADLNRDLEKDQALLQEKLYKIADDKEKLNQEIAQIKEDKDSIQQKTAALSQRLSSLQLSERDLANTQKFERTNLKRLAEELAELEQNEAGMMQLLDSQEEDLDEKRLPSLKRQLANAQARKTESDQELVRYRFELEDCEAQLEEVETNLLKTNQKNEEFIRQQTQLEAKRDHLSNQLRRFANNLAEDYQLSLDDAKQEAGPIENLEAAQAHLSQLEKQIKGLGPVNLDAIGQYDEVSERLHFLNSQKDDLVHAKELLLNTIHDMDDEVKARFKTTFEAIRDSFKTTFTQMFGGGSADLLLTEGDLLMTGVEISVQPPGKKIQSLNLMSGGEKALSALALLFAIIRVKTIPFVILDEVEAALDEANVKRFGDYLNRFDKSSQFIVVTHRKGTMSAADSIYGVTMQESGVSKIISVKLKEVEKIS
As to B4, the binding entry is “binds”.

B5: 3-oxoacyl-[acyl-carrier-protein] reductase, FabG (protein, UniProt Q8DSN5 1-244)
chain: MEIKNKNVFITGSTRGIGLAIAHKFAQAGANIVLNGRSEISQDLVAEFKDYGVKVATISGDVSHFEDAKRMVDEATEALGSVDILVNNAGITNDKLMLKMTEEDFERVLKINLTGSFNMTKAVLKPMTKARQGAIINMSSVVGLAGNVGQANYAASKAGLIGFTKAVAREVAARNIRVNAIAPGFIESDMTERIPNKMKDAMLNQIPMKTFGKTENVAEVAMFLAQQDYLTGQVIAIDGGMTMQ
On to B5, for which the binding result is recorded as “binds”.

B6: Glutamate synthase subunit beta, GltB (protein, UniProt Q8CWY8 1-478)
chain: MADPFGFLKYERKDNPYRPVNERIKDFEELQTTLSVEERQKQAARCMNCGIPFCHEGTFYGGGRAVSGCPNDNLIPEWNDLIYKGDFRRAFERLTRTNPLPEMTGRVCPAPCEKACTEGLNGSGVTIHDNERFIIDNAFEEGWVADSGRPIERTGFKVAVVGSGPAGLSAAWRLNQLGHSVTVFERSDRFGGLLMYGIPNMKLDKKIVQRRIDTMASIGINFVANTEIGRDITAEELLEKFDRVILATGASVPRDLDIPGRDLKGIRFAVDFLTETTKNLLDSDTHELPPLLEGKHVLVIGGGDTGNDCIGTAVRLGAASVRQLEITPQLPEKRLPTNPWPQYPMINRTGYGQEEADFVQQTDLTDYITSTVEFLGENGQVTAVKTIKVGPGFKAIEGTEEVIKADLVLLAMGFTGAEKALFDQFRVECVYDDYSTRNEKVFVAGDARRGPSLVIWGIREGRKTAEKIDQNLRMMVTE
Take B6: the binding entry is given as “binds”.

B7: Cell division protein, FtsZ (protein, UniProt Q8DVD9 1-434)
chain: MAFSFDAASVQGAVIKVIGVGGGGGNAINRMIDEGVAGVEFIAANTDIQALSSSKAETVIQLGPKLTRGLGAGGQPEIGRKAAEESEEALTEALTGADMVFITAGMGGGSGTGAAPVIARIAKGLGSLTVAVVTRPFGFEGSKRGNYAIEGINELRDEVDTLLIISNNNLLEIVDKKTPLLEALSEADNVLRQGVQGITDLITSPGLINLDFADVKTVMASKGNALMGIGIGTGEERVVEAARKAIYSPLLETTIDGAEDVIVNVTGGLDMTLTEAEEASEIVNQAAGHGVNIWLGTSIDDSMKDEIRVTVVATGVRPDKADQVSGIRRQASSYTQPRAQQQAPSSNSAQPNFERRQNFDFDLNESPEMPAAEPQQTQSSSEPQQSAFGDWNLRRENIARPTEGEIDSQLKMSSFSADSDDDDELETPPFFKNR
For the molecule B7, the binding entry is “binds”.

B8: ACP S-malonyltransferase, FabD (protein, UniProt Q8CWW8 1-306)
chain: MTKTAFLFAGQGAQKLGMASDLYEIYPVVKETFKTAHSILGYDVRALIDNDEEKLNQTRYAQPAILTTSVAIYRLLKEKGYQPDIVAGLSLGEYSALVAAGAISFEDALALVAKRGEFMETAAPAGVGKMVAVMNTDPRLIEEICQKASSKGIVSPANYNTPTQIVIGGEVAAVDYAVELLKGAGSKRLISLKVSGPFHTALLKSASQKLAQALENIKFSDFMLPLVGNTKAEIMKEQEIKPLLARQVKEPVRFYESIAVMQKFGVNNYVEIGPGKVLSGFVKKIDKSAKISAVEDLASLQAFLDN
B8: the binding result was “binds”.

B9: FtsQ-type POTRA domain-containing protein, FtsQ (protein, UniProt Q8DVE1 1-374)
chain: MAKDKDTEKQEIPLTEWQQRNLEFLKKKQEEKREKEKLNEKKMAEKKAQFQTDKEADSKESDKQPSSLFDDKKQEEPKKKPATPKKIKKEKKVPKLPRKDYWQAAMVIIISSIVLIASLFMISPLSRQKEITVSGNKNAIESQLIEELGIKKSDYLTTLLFQANRFERNLKSKDKWVKEAKLVYHFPNHFTLRVKEYRIIAYRQTDKGYVPILENGTRVDTVNASELPGSFVTINLDQEKEVRELVQKLAKLDKSLVGSIKVISSVNSSSTKDLLLLEMKDNNSVRVPLSEIDTKLPYYSKIKKNLTDGSIVDMEVGIYSTTADIEASIAEHKTTATTESSENSSNAENTDSTQSSEANSQEGSQSVTQATVSQ
In the case of B9, the binding entry is given as “binds”.

B10: phospho-sugar mutase, Pgm (protein, UniProt Q8DU72 1-571)
chain: MVYQENYQKWLAYAKLPDYLHQELLAMDEKTKEDAFYTNLEFGTAGMRGYIGAGTNRINIYVVRQATEGLAQLIETKGDDVKKRGVAIAYDSRHFSQEFAFESAQVLAKHGIKAYVFESLRPTPELSFTVRHLGTFAGIMVTASHNPAPFNGYKVYGEDGGQMPPFDADALTDFIRAINDPFSIELADLEESKASGLIEVIGEAVDTDYLKEVKDVNINQKLIDEYGKDMKIVYTPLHGTGEMLARRALAQAGFDSVQVVEAQAVPDPDFSTVKSPNPENQEAFRLAEELGRQVDADVLVATDPDADRLGVEIRQADGSYKNLSGNQIGAIIAKYILEAHKTAGSLPTNAALCKSIVSTELVSKIAESYGATMFNVLTGFKFIAEKIQEFEEKHNHTYMFGFEESFGYLIKPFVRDKDAIQAVLIVAEIAAYYRSRGLTLADGIDEIYKEYGYFAEKTISVTLSGVDGATEIKKIMDKFRGDAPKQFNATDVVKLEDFQAQTATTADGIEKLTTPPSNVLKYILSDASWIAVRPSGTEPKIKFYIATVGNNSEDAQVKIANIEKEINDFVG
As to B10, the binding entry was “binds”.

B11: Acetyl-CoA carboxylase carboxyl transferase subunit alpha, AccA (protein, UniProt Q8DSP1 1-256)
chain: MSDVSRILKEARSQSRLTTLDYAEQIFDDFMELHGDRHFADDGAIVGGIGLLDGQAVTVIGVQKGKNLQDNLNRNFGQPNPEGYRKALRLMKQAEKFKRPVVTFINTAGAYPGIGAEERGQGEAIARNLLEMSDLKVPIIAIIIGEGGSGGALALAVADKVWMLEHTMYAVLSPEGFASILWKDGSRSIEAAELMKITAGELLKMEVVDKVIPEHGYFSSEIIQMLKTNLIEELKNLDQYPLNDLLEKRYQRFRKY
As to B11, the binding entry is “binds”.
